Some entries share one result that the patent states for a list of compounds.
Assay: Screening assay: formation (precipitation) of solid poly oxo-hydroxy iron in presence of ligand
Type: physicochemical
Details: ratios 1:1 to 1:5
Description: A series of dietary ligands was tested in a screening assay for their effects on the formation of solid ligand-modified poly oxo-hydroxy metal ion materials. Briefly, in a centrifuge tube, a fixed volume of stock solution of ferric iron (400 mM FeCl3 with 50 mM MOPS, pH 1.4) was mixed with varying volumes of a stock solution of ligand (400 mM with the exception of maltol which was 200 mM, plus MOPS at 50 mM and 0.9% NaCl) to obtain the desired metal:ligand ratio. The volumes were then equally adjusted to parity with a solution of 50 mM MOPS and 0.9% NaCl. […] A small aliquot was taken to confirm the starting iron concentration and then the pH was raised to ˜6.5 by drop-wise addition of concentrated NaOH to avoid high volume changes. After centrifugation at 2500 rpm for 10 minutes, an aliquot of supernatant was taken to analyse the iron remaining in solution. The remaining supernatant was discarded and a fixed volume of dissolution buffer at pH 6 (MOPS10 mM) or pH 4 (Acetic acid 10 mM) was then added to the wet solid of each tube and incubated overnight at room temperature. The tubes were then centrifuged (2500 rpm for 10 minutes) and an aliquot of supernatant taken to determine the iron that was disaggregated. The iron concentration in each aliquot was measured by ICPOES analysis. […]

In the case of O=C(O)[C@H](O)[C@@H](O)[C@H](O)[C@H](O)CO [gluconic acid], the “Ligand group by effect on the amount of solid material formed” value is reported as “strong ligands (ligands found to inhibit the formation of 80% of the solid material at ratio 1:1)”.

Source: patent US8058462B2, “Ligand modified poly oxo-hydroxy metal ion materials, their uses and processes for their preparation” (Medical Research Council, priority 2007, dated 2011)
